Data taken from PubChem BioAssay AID504444 (National Center for Advancing Translational Sciences (NCATS), 2011).
About 7,500 (2.1%) of roughly 360,000 compounds were called active. Inconclusive means that the source gave no clear call. Such entries were picked first, then a sample of the others. Calls come from the whole dose curve; as a rule, active = well fitted inhibition curve with a large enough effect; inconclusive = small, poorly fitted or top-dose-only effect, or effect the other way; inactive = flat fitted curve, though single readings scatter. Potencies beside an inconclusive call are fits to weak or partial responses and may not hold up.

test: Nrf2 qHTS screen for inhibitors; settings: A549 ARE-Fluc reporter, luciferase luminescence, 18-24 h; activity change, negative = inhibition: at 46 µM (top of the series); note: nearly all actives have a fitted effect of over 60% in size
Method in brief: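 A549 ARE_Fluc cells (5000/well, 5% FBS OPTI-MEM) pre-incubated 2 h, then treated with compounds 18-24 h at 37C/5% CO2 in concentration-response. CellTiter-Fluor viability read first; BugLite luciferase luminescence after 15 min at room temperature gives Nrf2 activity.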
% is set by controls: 0 for no effect and ±100 for the full control effect; potency is the fitted concentration of half-maximal effect.

SMILES	activity change, negative = inhibition	Potency
Cc1ccc(NC(=O)COc2coc(CN3CCc4ccccc4C3)cc2=O)c(C)c1	inactive: -1.2%	–
COc1ccc(C)cc1NS(=O)(=O)c1ccc(-c2cnc(C3CC3)o2)cc1	–	inconclusive: 6.51 µM [falling, single point]
Cc1ccc(C(C2C(=O)CC(C)(C)CC2=O)C2C(=O)CC(C)(C)CC2=O)s1	inactive: 2.57%	–
COc1ccc(CCNC(=O)c2cnc3sc(N4CCOCC4)nn3c2=O)cc1OC	–	inconclusive: 23.1 µM [activator, partial curve]
COc1ccc(/C=C/C(=O)NC2=NCCS2)cc1OC	–	inconclusive: 29.1 µM [activator, single point]
O=C(NCCCc1nc2ccccc2n1CCCCOc1ccccc1)C1CCCCC1	–	inconclusive: 18.4 µM [falling, single point]
Cc1ccc(SCCCn2cnc3ccccc3c2=O)cc1	–	inconclusive: 18.4 µM [falling, single point]
CC(C)(C)c1ccc(OCc2ccc(C(=O)Nc3cccnc3)o2)cc1	–	inconclusive: 6.51 µM [activator, single point]
CCNc1cccc(S(=O)(=O)N2CCCN(S(=O)(=O)c3ccc4c(c3)OCCO4)CC2)c1	–	inconclusive: 18.4 µM [falling, partial curve, poor fit]
Cc1nc(S(=O)(=O)N(C)c2ccccc2)c(C#N)c(C)c1Cl	–	inconclusive: 18.4 µM [falling, single point]
O=c1c(Sc2ccccc2)c(C(F)(F)F)[nH]n1-c1ccccc1	–	active: 20.6 µM
COC(=O)C1C(=O)CC(C)(O)C(C(=O)OC)C1c1ccccc1F (stereo not given)	inactive: 12.7%	–
Cc1nnc(Sc2cc(NCCO)c([N+](=O)[O-])c3nonc23)s1	–	inconclusive: 25.9 µM [falling, partial curve, poor fit]
O=C1c2ccc([N+](=O)[O-])cc2NC(c2ccco2)N1/N=C/c1ccco1 (stereo not given)	–	inconclusive: 18.4 µM [activator, partial curve, poor fit]
Cc1nn(Cc2ccc(C(=O)N3N=C(C(F)F)CC3(O)C(F)F)o2)c(C)c1[N+](=O)[O-] (stereo not given)	–	inconclusive: 18.4 µM [falling, single point]
CC(=O)N1CCN(c2cc(N3CCc4ccccc4C3)c(F)cc2[N+](=O)[O-])CC1	–	active: 23.1 µM
COc1cc(NC(=O)c2cc3nc(-c4ccc(C)cc4)cc(C(F)(F)F)n3n2)cc(OC)c1OC	inactive: -13.4%	–
Cc1ccc(NC(=O)CC(C)c2ccccc2)cc1S(=O)(=O)N1CCOCC1 (stereo not given)	–	inconclusive: 29.1 µM [falling, single point]
O=c1cc(C(F)(F)F)[nH]c2ccc(OC(F)(F)F)cc12	–	inconclusive: 18.4 µM [falling, single point]
O=C(COc1ccc([N+](=O)[O-])cc1)NNC(=S)NC(=O)c1ccc(Br)cc1	inactive: -2.29%	–
Cn1c2c(c(=O)n(C)c1=O)C(c1ccccc1[N+](=O)[O-])CC(=O)N2 (stereo not given)	inactive: -17.1%	–
CCCNc1nc2c(c(=O)n(C)c(=O)n2C)n1CCC(C)C	–	active: 9.2 µM
COc1cc(CN(C)C(=O)C2CCN(S(=O)(=O)c3cccs3)CC2)ccc1OC(F)F	–	inconclusive: 23.1 µM [falling, single point]

Reformatted: 3 of the compounds above.
SMILES | activity change, negative = inhibition | Potency
Cc1nnc(Sc2cc(NCCO)c([N+](=O)[O-])c3nonc23)s1 | – | inconclusive: 25.9 µM [falling, partial curve, poor fit]
O=C1c2ccc([N+](=O)[O-])cc2NC(c2ccco2)N1/N=C/c1ccco1 (stereo not given) | – | inconclusive: 18.4 µM [activator, partial curve, poor fit]
Cc1nn(Cc2ccc(C(=O)N3N=C(C(F)F)CC3(O)C(F)F)o2)c(C)c1[N+](=O)[O-] (stereo not given) | – | inconclusive: 18.4 µM [falling, single point]

(list continues)

SMILES	activity change, negative = inhibition	Potency
O=C(NCCCCNC(=O)C(F)(F)F)C(F)(F)F	–	inconclusive: 14.6 µM [activator, partial curve]
Cc1ccc(NC(=O)CCSc2nnc(-c3ccco3)o2)cc1	–	inconclusive: 18.4 µM [falling, single point]
CC(=O)c1c(C)nc(-c2ccc3c(c2)OCO3)n1O	–	inconclusive: 18.4 µM [activator, partial curve, poor fit]
COc1ccccc1CNc1ccc(-c2nc(-c3ccccc3C)no2)cc1[N+](=O)[O-]	–	inconclusive: 18.4 µM [falling, single point]
COc1ccccc1OCCSc1nnnn1C1CCCCC1	–	inconclusive: 18.4 µM [activator, partial curve]
CS(=O)(=O)N(CC(=O)Nc1ccc(CC#N)cc1)c1ccc(C23CC4CC(CC(C4)C2)C3)cc1	–	active: 14.6 µM
COC(=O)c1sc2nc(N3CCCCC3)c3c(c2c1N)CCCC3	inactive: -18.4%	–
C#CCSc1nnc(C)c(C)n1	inactive: 20.8%	–
CCN(CC)CCNC(=O)c1ccc(NC(=O)COc2ccc3c(c2)CCC3)cc1	inactive: 8.78%	–
CCc1ccc(S(=O)(=O)/N=C2/C=C(Sc3ncn[nH]3)C(=O)c3ccccc32)cc1	inactive: -26.8%	–
Cc1cc(C)cc(NC(=O)C2CCN(C(=O)c3cnn(-c4ccccc4)c3-n3cccc3)CC2)c1	–	inconclusive: 29.1 µM [falling, single point]
COc1ccc(NC(=O)c2ccco2)cc1NC(=O)c1ccc(Br)o1	–	inconclusive: 1.84 µM [falling, full curve]
Cc1ccc(NC(=O)CS(=O)(=O)c2cn(CC(=O)N3CCOCC3)c3ccccc23)cc1	–	inconclusive: 18.4 µM [activator, single point]
Cc1nc(SCC(=O)NCCc2ccccc2)nc(C)c1C	inactive: 6.12%	–
COc1ccc(OC)c(-c2csc(N(CC3CCCO3)C(=O)Cc3ccccc3)n2)c1 (stereo not given)	–	inconclusive: 8.2 µM [falling, partial curve, poor fit]
Cc1cc(C(C)(C)C)oc1C(=O)Nc1ccc(CC(=O)O)cc1	–	inconclusive: 4.11 µM [falling, full curve]
O=C(c1ccc(F)cc1)N1CCCN(c2nc(-c3ccccc3)ns2)CC1	inactive: -4.34%	–
O=C(NCc1cccs1)c1ccc(CSc2nc3cccnc3n2Cc2ccc(F)cc2)cc1	–	active: 18.4 µM
COc1cccc(NC(=O)CN(C)CC(=O)Nc2ccc(C)cc2Cl)c1	–	inconclusive: 20.6 µM [falling, partial curve]
Nc1ccc(C(=O)n2c3ccccc3c3ccccc32)cc1	–	inconclusive: 3.66 µM [falling, partial curve, poor fit]
CCCCCC(=O)Nc1nc(C)c(-c2csc(Nc3cc(Cl)ccc3C)n2)s1	inactive: 15.1%	–
CCOC(=O)c1ccc(S(=O)(=O)N2CCN(C(=O)C3CSC4(C)CCC(=O)N34)CC2)cc1 (stereo not given)	inactive: 8.56%	–
